# The supplement of paper PMC12067093, “Discovery and optimisation of a covalent ligand for TRIM25 and its application to targeted protein ubiquitination” (Chemical Science, 2025)
# By UniProt entry, the sequences of proteins in these tests, tags left out. Where a name states a change or a piece, a line headed by the entry shows the natural chain unless it says otherwise.
# UniProt P20585: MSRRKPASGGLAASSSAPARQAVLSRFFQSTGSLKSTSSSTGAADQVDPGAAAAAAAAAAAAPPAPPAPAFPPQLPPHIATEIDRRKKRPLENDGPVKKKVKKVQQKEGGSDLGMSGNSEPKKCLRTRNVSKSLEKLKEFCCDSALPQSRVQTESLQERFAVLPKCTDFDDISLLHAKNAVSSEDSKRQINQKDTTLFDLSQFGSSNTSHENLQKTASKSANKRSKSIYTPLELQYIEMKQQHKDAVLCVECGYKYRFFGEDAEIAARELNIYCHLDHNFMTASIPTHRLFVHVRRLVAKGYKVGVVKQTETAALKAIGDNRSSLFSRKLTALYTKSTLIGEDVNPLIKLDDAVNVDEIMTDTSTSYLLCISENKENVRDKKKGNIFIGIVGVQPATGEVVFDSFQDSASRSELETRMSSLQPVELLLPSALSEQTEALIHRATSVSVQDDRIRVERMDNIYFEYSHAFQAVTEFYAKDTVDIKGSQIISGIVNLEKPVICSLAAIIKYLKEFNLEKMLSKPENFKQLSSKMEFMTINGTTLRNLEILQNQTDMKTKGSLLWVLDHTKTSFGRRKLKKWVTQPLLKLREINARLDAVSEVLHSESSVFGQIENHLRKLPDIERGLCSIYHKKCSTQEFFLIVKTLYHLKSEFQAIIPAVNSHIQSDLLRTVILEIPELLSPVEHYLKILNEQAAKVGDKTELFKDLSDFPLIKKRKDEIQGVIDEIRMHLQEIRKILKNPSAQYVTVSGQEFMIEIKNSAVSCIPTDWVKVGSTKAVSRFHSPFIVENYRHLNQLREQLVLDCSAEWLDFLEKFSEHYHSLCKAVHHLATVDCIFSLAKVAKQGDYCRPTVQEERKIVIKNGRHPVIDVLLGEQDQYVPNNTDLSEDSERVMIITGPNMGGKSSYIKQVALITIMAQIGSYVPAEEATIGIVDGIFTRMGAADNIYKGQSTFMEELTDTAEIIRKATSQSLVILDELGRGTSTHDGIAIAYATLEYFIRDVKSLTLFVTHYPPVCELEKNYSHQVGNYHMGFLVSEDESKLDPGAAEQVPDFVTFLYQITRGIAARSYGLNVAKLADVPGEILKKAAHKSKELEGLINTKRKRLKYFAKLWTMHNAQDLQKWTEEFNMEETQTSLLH
# This is one part of the list.
# Target: MSH3_P20585_1015_SLTLFVTHYPPVCELEK (UniProt P20585)
# Test: probe-labelled cysteine peptide fold change vs DMSO (competition) (log2 fold change); higher = less target engagement (more negative = stronger competition)
# Settings: THP-1, incubation time: 4 h
# 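Further: competitive chemoproteomic profiling in live THP-1 cells with an iodoacetamide desthiobiotin (IA-DTB) probe, comparing probe-labelled peptide intensities in compound-treated cells against DMSO-treated controls.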
smiles,measurement,setting,value
CC1Cc2ccccc2N1C(=O)C1CCCN(C(=O)CCl)C1 (mixture of isomers) [TRIM25 ligand 11 (diastereomer mixture)],probe-labelled cysteine peptide fold change,10 µM,0.262
same,probe-labelled cysteine peptide fold change,50 µM,0.301
